Assay results as given in doi:10.1101/2025.04.18.649598.

Amino acid sequences for entries named in this document (tags omitted).
UniProt Q921T2: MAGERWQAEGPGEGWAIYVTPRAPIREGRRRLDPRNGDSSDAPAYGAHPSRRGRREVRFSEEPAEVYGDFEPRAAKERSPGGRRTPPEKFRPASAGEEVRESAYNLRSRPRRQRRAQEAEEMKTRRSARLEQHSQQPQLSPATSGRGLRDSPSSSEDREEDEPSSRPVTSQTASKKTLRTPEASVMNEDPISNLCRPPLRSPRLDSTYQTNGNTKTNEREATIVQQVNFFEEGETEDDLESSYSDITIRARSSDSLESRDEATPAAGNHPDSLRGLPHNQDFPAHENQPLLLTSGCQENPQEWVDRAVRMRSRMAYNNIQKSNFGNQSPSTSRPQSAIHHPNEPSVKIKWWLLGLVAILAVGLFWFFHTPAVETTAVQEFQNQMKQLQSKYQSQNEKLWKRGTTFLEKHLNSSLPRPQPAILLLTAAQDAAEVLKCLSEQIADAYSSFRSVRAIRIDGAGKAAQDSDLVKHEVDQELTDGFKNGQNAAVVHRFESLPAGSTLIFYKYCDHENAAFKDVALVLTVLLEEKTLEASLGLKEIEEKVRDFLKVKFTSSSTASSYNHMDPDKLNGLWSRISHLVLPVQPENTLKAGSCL

Target: murine Lap1b-TurboID-mNeonGreen (murine) (UniProt Q921T2)
Experiment: proximity labelling

binding: binds
B1: Torsin1B (protein, UniProt Q9ER41 25-336)
chain: FEPVSVGIAIGAVSALTGYLSYTDFYCRFTECCHEERPLNTSALKLDLEEKLFGQHLATEVILKALTGFRNNKNSKKPLTLSLHGWAGTGKNFISQIVAENLYPKGLKSNFVHLFVSTLHFPHEQKIKVYQDQLQKWIRGNVSACGSSVFIFDEMDKLHPGIIDAIKPFLDYYEQVDGISYRRAIFIFLSNAGGDLITKTALDFWRAGRKREEIQLKDLEPVLSVGVFNNKHSGLWHSGLIDKNLIDYFIPFLPLEYKHVKMCVRAEMRARGAAVDEDVVTSVADEMTFFPKDEKIYSDKGCKTVQSRLDFH

No constants are given. Whether binding was seen depends on the method and setting. Binding seen in cells or lysates may run through a third protein. A yes stands for co-enrichment or nearness to the bait. Other partners may have been found.
